Laboratory results published in article PMC13034042.

Chains of the proteins cited; added tags and fusions are not shown.
UniProt P14126: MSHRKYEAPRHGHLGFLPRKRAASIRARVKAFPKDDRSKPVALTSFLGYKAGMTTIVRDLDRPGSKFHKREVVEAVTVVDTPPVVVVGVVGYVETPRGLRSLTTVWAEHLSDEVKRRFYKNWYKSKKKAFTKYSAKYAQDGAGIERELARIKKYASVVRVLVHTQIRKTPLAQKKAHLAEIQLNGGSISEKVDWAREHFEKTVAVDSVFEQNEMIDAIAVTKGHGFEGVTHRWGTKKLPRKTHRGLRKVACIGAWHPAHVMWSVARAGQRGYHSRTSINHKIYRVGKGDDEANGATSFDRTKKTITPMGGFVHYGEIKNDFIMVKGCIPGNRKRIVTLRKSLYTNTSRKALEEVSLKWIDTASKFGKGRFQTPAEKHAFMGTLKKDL

T1: Bcl1-TurboID (S. cerevisiae) (UniProt P53962)
T1 sequence: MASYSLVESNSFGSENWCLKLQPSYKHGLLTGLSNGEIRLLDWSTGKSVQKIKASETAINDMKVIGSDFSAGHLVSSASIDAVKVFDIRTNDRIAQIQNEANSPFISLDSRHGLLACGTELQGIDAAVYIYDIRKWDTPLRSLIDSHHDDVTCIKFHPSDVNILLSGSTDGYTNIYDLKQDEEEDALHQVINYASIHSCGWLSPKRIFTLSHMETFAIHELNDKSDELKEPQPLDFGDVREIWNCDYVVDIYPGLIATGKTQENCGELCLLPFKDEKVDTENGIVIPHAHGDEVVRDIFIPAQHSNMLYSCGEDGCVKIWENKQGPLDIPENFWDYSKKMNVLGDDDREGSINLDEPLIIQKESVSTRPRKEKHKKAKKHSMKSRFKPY

T2: Syo1-TurboID (S. cerevisiae) (UniProt Q07395)
T2 sequence: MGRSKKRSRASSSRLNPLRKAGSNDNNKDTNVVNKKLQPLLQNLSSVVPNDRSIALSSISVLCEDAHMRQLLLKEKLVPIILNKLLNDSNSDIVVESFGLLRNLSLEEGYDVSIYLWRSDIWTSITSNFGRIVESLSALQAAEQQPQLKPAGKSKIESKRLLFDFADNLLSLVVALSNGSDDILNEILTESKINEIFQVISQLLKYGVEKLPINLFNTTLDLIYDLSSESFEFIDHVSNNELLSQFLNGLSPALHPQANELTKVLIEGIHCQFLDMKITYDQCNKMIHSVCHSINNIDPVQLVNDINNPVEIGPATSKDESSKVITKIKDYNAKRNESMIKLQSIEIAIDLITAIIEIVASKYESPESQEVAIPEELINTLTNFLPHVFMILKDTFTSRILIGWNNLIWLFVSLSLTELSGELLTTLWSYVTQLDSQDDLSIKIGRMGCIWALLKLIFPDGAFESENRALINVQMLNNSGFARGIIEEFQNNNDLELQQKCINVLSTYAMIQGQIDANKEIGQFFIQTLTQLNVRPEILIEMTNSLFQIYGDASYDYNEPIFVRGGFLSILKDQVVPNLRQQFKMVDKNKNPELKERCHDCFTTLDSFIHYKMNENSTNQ


Assays:
Test in all cases: proximity labelling; TurboID-fused bait expressed from a centromeric CUP1-promoter plasmid in S. cerevisiae YDK11-5A; 500 μM copper sulphate and 500 μM biotin for 1 h at 30°C; biotinylated proteins purified on streptavidin agarose and identified by LC-MS/MS; enrichment against the GFP-TurboID and NLS-GFP-TurboID type controls
[1] = molecular target: T1, Bcl1-TurboID (S. cerevisiae)
[2] = molecular target: Rpl3-TurboID (S. cerevisiae) (UniProt P14126)
[3] = molecular target: T2, Syo1-TurboID (S. cerevisiae)

binding [1]	binding [2]	binding [3]	Binder
binds			Erb1 (endogenous) (protein, UniProt Q04660 1-807) MMAKNNKTTEAKMSKKRAASEESDVEEDEDKLLSVDGLIDAEASESDEDDDEYESAVEEKESSSDKEAQDDSDDDSDAELNKLLAEEEGDGEEDYDSSEFSDDTTSLTDRLSGVKLQTIVDPNIYSKYADGSDRIIKPEINPVYDSDDSDAETQNTIGNIPLSAYDEMPHIGYDINGKRIMRPAKGSALDQLLDSIELPEGWTGLLDKNSGSSLNLTKEELELISKIQRNEQTDDSINPYEPLIDWFTRHEEVMPLTAVPEPKRRFVPSKNEAKRVMKIVRAIREGRIIPPKKLKEMKEKEKIENYQYDLWGDSTETNDHVMHLRAPKLPPPTNEESYNPPEEYLLSPEEKEAWENTEYSERERNFIPQKYSALRKVPGYGESIRERFERSLDLYLAPRVRKNKLNIDPNSLIPELPSPKDLRPFPIRCSTIYAGHKGKVRTLSIDPSGLWLATGSDDGTVRVWEILTGREVYRTTLIDDEENPDYHIECIEWNPDANNGILAVAVGENIHLIVPPIFGYDIENNGKTKIEDGFGYDTFGTVKKSNLEVNENGDGDEDGENESAKNAVKKQVAQWNKPSQKQLEKDICITISCKKTVKKLSWHRKGDYFVTVQPDSGNTSVLIHQVSKHLTQSPFKKSKGIIMDAKFHPFKPQLFVCSQRYVRIYDLSQQILVKKLLPGARWLSKIDIHPRGDNLIASSFDKRVLWHDLDLASTPYKTLRYHEKAVRSVNFHKKLPLFSSAADDGTIHVFHATVYDDMMKNPMIVPLKKLTGHKVINSLGVLDAIWHPREAWLFSAGADNTARLWTT
binds	binds		Nog1 (endogenous) (protein, UniProt Q02892 1-647) MQLSWKDIPTVAPANDLLDIVLNRTQRKTPTVIRPGFKITRIRAFYMRKVKYTGEGFVEKFEDILKGFPNINDVHPFHRDLMDTLYEKNHYKISLAAISRAKSLVEQVARDYVRLLKFGQSLFQCKQLKRAALGRMATIVKKLRDPLAYLEQVRQHIGRLPSIDPNTRTLLICGYPNVGKSSFLRCITKSDVDVQPYAFTTKSLYVGHFDYKYLRFQAIDTPGILDRPTEEMNNIEMQSIYAIAHLRSCVLYFMDLSEQCGFTIEAQVKLFHSIKPLFANKSVMVVINKTDIIRPEDLDEERAQLLESVKEVPGVEIMTSSCQLEENVMEVRNKACEKLLASRIENKLKSQSRINNVLNKIHVAQPQARDDVKRTPFIPESVKNLKKYDPEDPNRRKLARDIEAENGGAGVFNVNLKDKYLLEDDEWKNDIMPEILDGKNVYDFLDPEIAAKLQALEEEEEKLENEGFYNSDDEEEIYDGFEASEVDDIKEKAAWIRNRQKTMIAEARNRKSLKNKAIMPRSKLTKSFGKMEEHMSTLGHDMSALQDKQNRAARKNRYVERGSDVVFGDQDALTASTENGVKLRQTDRLLDGVADGSMRSKADRMAKMERRERNRHAKQGESDRHNAVSLSKHLFSGKRGVGKTDFR
binds			Ebp2 (endogenous) (protein, UniProt P36049 1-427) MAKGFKLKELLSHQKEIEKAEKLENDLKKKKSQELKKEEPTIVTASNLKKLEKKEKKADVKKEVAADTEEYQSQALSKKEKRKLKKELKKMQEQDATEAQKHMSGDEDESGDDREEEEEEEEEEEGRLDLEKLAKSDSESEDDSESENDSEEDEDVVAKEESEEKEEQEEEQDVPLSDVEFDSDADVVPHHKLTVNNTKAMKHALERVQLPWKKHSFQEHQSVTSETNTDEHIKDIYDDTERELAFYKQSLDAVLVARDELKRLKVPFKRPLDYFAEMVKSDEHMDKIKGKLIEEASDKKAREEARRQRQLKKFGKQVQNATLQKRQLEKRETLEKIKSLKNKRKHNEIDHSEFNVGVEEEVEGKRFDRGRPNGKRAAKNAKYGQGGMKRFKRKNDATSSADVSGFSSRKMKGKTNRPGKSRRARRF
		binds	Kap104 (endogenous) (protein, UniProt P38217 1-918) MASTWKPAEDYVLQLATLLQNCMSPNPEIRNNAMEAMENFQLQPEFLNYLCYILIEGESDDVLKQHYSLQDLQNNRATAGMLLKNSMLGGNNLIKSNSHDLGYVKSNIIHGLYNSNNNLVSNVTGIVITTLFSTYYRQHRDDPTGLQMLYQLLELTSNGNEPSIKALSKIMEDSAQFFQLEWSGNTKPMEALLDSFFRFISNPNFSPVIRSESVKCINTVIPLQTQSFIVRLDKFLEIIFQLAQNDENDLVRAQICISFSFLLEFRPDKLVSHLDGIVQFMLHLITTVNEEKVAIEACEFLHAFATSPNIPEHILQPYVKDIVPILLSKMVYNEESIVLLEASNDDDAFLEDKDEDIKPIAPRIVKKKEAGNGEDADDNEDDDDDDDDEDGDVDTQWNLRKCSAATLDVMTNILPHQVMDIAFPFLREHLGSDRWFIREATILALGAMAEGGMKYFNDGLPALIPFLVEQLNDKWAPVRKMTCWTLSRFSPWILQDHTEFLIPVLEPIINTLMDKKKDVQEAAISSVAVFIENADSELVETLFYSQLLTSFDKCLKYYKKKNLIILYDAIGRFAEKCALDETAMQIILPPLIEKWALLSDSDKELWPLLECLSCVASSLGERFMPMAPEVYNRAFRILCHCVELEAKSHQDPTIVVPEKDFIITSLDLIDGLVQGLGAHSQDLLFPQGTKDLTILKIMLECLQDPVHEVRQSCFALLGDIVYFFNSELVIGNLEDFLKLIGTEIMHNDDSDGTPAVINAIWALGLISERIDLNTYIIDMSRIILDLFTTNTQIVDSSVMENLSVTIGKMGLTHPEVFSSGAFANDSNWNKWCLSVNALDDVEEKSSAYMGFLKIINLTSTEVTMSNDTIHKIVTGLSSNVEANVFAQEIYTFLMNHSAQISAINFTPDEISFLQQFTS
binds			Nug1 (endogenous) (protein, UniProt P40010 1-520) MRVRKRQSRRTSTKLKEGIKKKASAHRKKEKKMAKKDVTWRSRSKKDPGIPSNFPYKAKILEEIEAKKMKDLEERELAKQQRLEARKAAKEQGVDAMDEDMIEDDENGLAALVESAQQAAAEYEGTPSNDADVRDDELDVIDYNIDFYGEDVEGESELEKSRKAYDKIFKSVIDASDVILYVLDARDPESTRSRKVEEAVLQSQGKRLILILNKVDLIPPHVLEQWLNYLKSSFPTIPLRASSGAVNGTSFNRKLSQTTTASALLESLKTYSNNSNLKRSIVVGVIGYPNVGKSSVINALLARRGGQSKACPVGNEAGVTTSLREIKIDNKLKILDSPGICFPSENKKRSKVEHEAELALLNALPAKHIVDPYPAVLMLVKRLAKSDEMTESFKKLYEIPPIPANDADTFTKHFLIHVARKRGRLGKGGIPNLASAGLSVLNDWRDGKILGWVLPNTSAAASQQDKQNLSTINTGTKQAPIAANESTIVSEWSKEFDLDGLFSSLDKAIDASKDQDTMME
binds			Noc2 (endogenous) (protein, UniProt P39744 1-710) MGKVSKSTKKFQSKHLKHTLDQRRKEKIQKKRIQGRRGNKTDQEKADAAGTREQQQLKKSAKEEVFKDMSVETFFEKGIEIPKENKKLKKKTTKEQSDEDSSSSEEEEDMGQSMAKLAEKDPEFYKYLEENDKDLLDFAGTNPLDGIDSQDEGEDAERNSNIEEKSEQMELEKEKIELSLKLVRKWKKQLHDSPSLKLLRNIISAFKVAVNLNKEENIEDYKYAITDEKAFHELMFMVLKDVPQAIQKMAPYKIVKGARTLPNGGNVSRVSSIVKSHAGSLLILLNDITNTETAALVLHSVNELMPYLLSYRRILKELIKSIVGVWSTTRELETQIASFAFLINTTKEFKKSMLETTLKTTYSTFIKSCRKTNMRSMPLINFQKNSAAELFGIDEVLGYQVGFEYIRQLAIHLRNTMNATTKKSSKINSAEAYKIVYNWQFCHSLDFWSRVLSFACQPEKENGSESPLRQLIYPLVQVTLGVIRLIPTPQFFPLRFYLIKSLIRLSQNSGVFIPIYPLLSEILTSTAFTKAPKKSPNLAAFDFEHNIKCTQAYLNTKIYQEGLSEQFVDLLGDYFALYCKNIAFPELVTPVIISLRRYIKTSTNVKLNKRLSTVVEKLNQNSTFIQEKRSDVEFGPTNKSEVSRFLNDVAWNKTPLGSYVAVQREVKEEKARLMRESMEEQDKERETEEAKLLNSLESDDDNEDVEMSDA

Results are given in words; binding and its absence hold for the method and conditions named. In cells and extracts the contact can be indirect. A yes stands for co-enrichment or nearness to the bait. Other partners may have been found.
